Data on one substance can be found in patent US20030207400A1 (priority 2003, published 2003).

The data set can be described thus: general procedure: peptide synthesis; PyBOP, HOBt and DIEA. Conditions: TFA.

Values joined by “and” are separate entries in the source; they are usually repeats but may differ in a detail not shown here. Identical values can stand only once. A value given as a limit tells only on which side of the number the result lay.

With “βAla-Pyr-Im-βAla-Pyr-Im-GABA-Pyr-Im-βAla-Pyr-Im”, where the note is “purification step, product recovered vs total product in crude loaded”, the step yield is recorded as 80%. Also, where the note is “whole synthesis, run 1”, the isolated yield was 28.4% and 16%. Moreover, the “final HPLC purity” value (whole synthesis, analytical HPLC, run 1) was >95% and 59%.
